In the supplement of paper PMC6078165:
The reference is the same well before dosing, and untreated signal decays as well.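 Fibroblast labels name human fibroblasts: mostly primary ones from tissues such as uterus (C12385, HUF), lung (H6013), bone (Hs27A), adrenal (HADF) and skin (WS1), plus mammary HMF and breast cancer-associated Hs343T. The cancer cells are basal-like or mesenchymal-like triple-negative breast cancer lines. The paper calls a changed response a hit when it shifts by more than 3x the replicate standard deviation. The tissue of the other fibroblasts is not given here.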

System: MDAMB231
Experiment: relative JC-1 red fluorescence (viability) vs pre-drug, coculture with fibroblast (fraction); higher = more viable cancer cells
Description: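 JC-1 labelled TNBC cells cocultured 1:1 (1,500 cells each) with CellTrace Violet stained primary or stromal fibroblasts in 384-well plates in FluoroBrite medium, treated with one of 42 anticancer drugs at 0.1, 1, 10 or 100 uM. JC-1 red fluorescence (mitochondrial integrity in cancer cells only) was read by plate reader every 8 h for 72 h. Values are normalised to each well's pre-drug value. The stock of one drug was tenfold lower, so its dose labels may be too high.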

CC(C)C[C@H](NC(=O)[C@H](Cc1ccccc1)NC(=O)c1cnccn1)B(O)O [Bortezomib]
relative JC-1 red fluorescence
Conditions | 8 h | 16 h | 24 h | 32 h | 40 h | 48 h | 56 h | 64 h | 72 h
0.1 µM, coculture fibroblast: C12385 | 0.7802 | 0.717 | 0.774 | 0.669 | 0.631 | 0.654 | 0.659 | 0.7296 | 0.748
0.1 µM, coculture fibroblast: H6013 | 0.887 | 0.83 | 0.799 | 0.782 | 0.797 | 0.858 | 0.852 | 0.87 | 0.861
0.1 µM, coculture fibroblast: H6019 | 0.811 | 0.737 | 0.839 | 0.846 | 0.891 | 0.788 | 0.831 | 0.875 | 0.849
0.1 µM, coculture fibroblast: H6076 | 0.821 | 0.765 | 0.787 | 0.83423 | 0.914 | 0.926 | 0.968 | 0.866 | 0.85
0.1 µM, coculture fibroblast: H6231 | 0.8783 | 0.766 | 0.692 | 0.652 | 0.621 | 0.623 | 0.627 | 0.646 | 0.659
0.1 µM, coculture fibroblast: HADF | 0.869 | 0.8088 | 0.7549 | 0.704 | 0.685 | 0.725 | 0.7 | 0.721 | 0.717
0.1 µM, coculture fibroblast: HCFa | 0.8737 | 0.7981 | 0.721 | 0.668 | 0.651 | 0.663 | 0.629 | 0.619 | 0.59
0.1 µM, coculture fibroblast: HCPF | 0.893 | 0.7857 | 0.707 | 0.656 | 0.612 | 0.584 | 0.583 | 0.585 | 0.606
0.1 µM, coculture fibroblast: HHSteC | 0.889 | 0.856 | 0.813 | 0.774 | 0.757 | 0.783 | 0.748 | 0.758 | 0.744
0.1 µM, coculture fibroblast: HMF | 0.8487 | 0.767 | 0.7278 | 0.7061 | 0.693 | 0.677 | 0.701 | 0.726 | 0.762
0.1 µM, coculture fibroblast: HPFa | 0.947 | 0.9 | 0.853 | 0.819 | 0.825 | 0.783 | 0.737 | 0.669 | 0.797
0.1 µM, coculture fibroblast: HUF | 0.823 | 0.71798 | 0.776 | 0.665 | 0.639 | 0.672 | 0.66 | 0.707 | 0.707
0.1 µM, coculture fibroblast: Hs5 | 0.85 | 0.7936 | 0.7817 | 0.768 | 0.788 | 0.766 | 0.778 | 0.786 | 0.803
0.1 µM, coculture fibroblast: Hs27A | 0.867 | 0.826 | 0.778 | 0.765 | 0.733 | 0.754 | 0.72 | 0.728 | 0.703
0.1 µM, coculture fibroblast: Hs343T | 0.807 | 0.71876 | 0.676 | 0.659 | 0.657 | 0.6625 | 0.683 | 0.715 | 0.747
0.1 µM, coculture fibroblast: WS1 | 0.772 | 0.692 | 0.726 | 0.618 | 0.613 | 0.641 | 0.648 | 0.722 | 0.735
1 µM, coculture fibroblast: C12385 | 0.751 | 0.731 | 0.563 | 0.483 | 0.407 | 0.388 | 0.364 | 0.374 | 0.362
1 µM, coculture fibroblast: H6013 | 0.873 | 0.764 | 0.645 | 0.59 | 0.536 | 0.537 | 0.518 | 0.503 | 0.481
1 µM, coculture fibroblast: H6019 | 0.794 | 0.709 | 0.714 | 0.669 | 0.643 | 0.668 | 0.66 | 0.701 | 0.693
1 µM, coculture fibroblast: H6076 | 0.9127 | 0.764 | 0.639 | 0.6 | 0.585 | 0.578 | 0.589 | 0.599 | 0.617
1 µM, coculture fibroblast: H6231 | 0.909 | 0.792 | 0.656 | 0.59 | 0.527 | 0.508 | 0.491 | 0.485 | 0.486
1 µM, coculture fibroblast: HADF | 0.8852 | 0.825 | 0.6817 | 0.59 | 0.525 | 0.493 | 0.456 | 0.442 | 0.419
1 µM, coculture fibroblast: HCFa | 0.8784 | 0.783 | 0.694 | 0.622 | 0.58 | 0.569 | 0.544 | 0.527 | 0.494
1 µM, coculture fibroblast: HCPF | 0.905 | 0.79 | 0.601 | 0.528 | 0.472 | 0.446 | 0.418 | 0.403 | 0.406
1 µM, coculture fibroblast: HHSteC | 0.888 | 0.8064 | 0.70347 | 0.6332 | 0.563 | 0.546 | 0.501 | 0.482 | 0.449
1 µM, coculture fibroblast: HMF | 0.881 | 0.742 | 0.6543 | 0.587 | 0.541 | 0.509 | 0.49 | 0.495 | 0.512
1 µM, coculture fibroblast: HPFa | 0.925 | 0.858 | 0.74 | 0.638 | 0.585 | 0.566 | 0.519 | 0.494 | 0.457
1 µM, coculture fibroblast: HUF | 0.836 | 0.7236 | 0.7173 | 0.62 | 0.596 | 0.607 | 0.574 | 0.593 | 0.584
1 µM, coculture fibroblast: Hs5 | 0.927 | 0.798 | 0.666 | 0.588 | 0.525 | 0.466 | 0.446 | 0.431 | 0.424
1 µM, coculture fibroblast: Hs27A | 0.866 | 0.77998 | 0.6779 | 0.6251 | 0.58 | 0.544 | 0.521 | 0.506 | 0.468
1 µM, coculture fibroblast: Hs343T | 0.9592 | 0.856 | 0.672 | 0.588 | 0.516 | 0.474 | 0.431 | 0.429 | 0.424
1 µM, coculture fibroblast: WS1 | 0.748 | 0.675 | 0.545 | 0.427 | 0.387 | 0.38 | 0.364 | 0.381 | 0.384
